Source: publication PMC5778138, “Interaction of the Morphogenic Protein RodZ with the Bacillus subtilis Min System” (Frontiers in Microbiology, 2017)

Target: T1, His-tagged MinJ (B. subtilis) (UniProt O34375)
T1 sequence: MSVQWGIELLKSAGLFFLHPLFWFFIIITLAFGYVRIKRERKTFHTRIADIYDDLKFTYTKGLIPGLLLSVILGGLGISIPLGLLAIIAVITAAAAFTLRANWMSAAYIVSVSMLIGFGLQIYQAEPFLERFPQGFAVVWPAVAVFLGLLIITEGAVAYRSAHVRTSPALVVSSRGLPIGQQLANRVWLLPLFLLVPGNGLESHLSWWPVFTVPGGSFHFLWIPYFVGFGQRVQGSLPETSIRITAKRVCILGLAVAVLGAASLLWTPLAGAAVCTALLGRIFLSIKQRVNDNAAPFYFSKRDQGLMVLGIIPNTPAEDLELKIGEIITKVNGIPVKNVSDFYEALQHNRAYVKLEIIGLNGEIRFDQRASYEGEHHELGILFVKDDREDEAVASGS
Experiment: pull-down; B. subtilis IB1659 extract (1% Triton X100) on Ni2+ Sepharose resin, 1 h at 4°C; 20 mM Tris-HCl pH 8, 150 mM NaCl, wash with 150 mM imidazole; MinJ-His held, CFP-RodZ detected with anti-GFP

Substance: CFP-RodZ (B. subtilis)
- binding: binds

These are yes or no findings as the source states them, for the method shown. Binding seen in cells or lysates may run through a third protein. Binding can be weak; no strength is given. Where a sequence is shown, tags or fusion partners need not be part of it.
